The results in this text go back to the supplement of paper PMC3047530.

This is one part of the list. Single values are uncertain, as repeats are few or missing.

This assay concerns Geomyces destructans. Briefly: growth inhibition relative to DMSO control; higher = stronger growth inhibition. Conditions: 10 µM; 15 °C; incubation time 10 days.
On to `CC(=O)N[C@@H](CC(=O)N[C@@H](CCC(=O)O)C(=O)O)C(=O)O`, for which the growth inhibition is -6.82%. Turning to `CC(=O)Oc1ccc2c(c1C(C)C)CCC1C(C)(C)CCC[C@]21C` (some centres not stated), the growth inhibition amounted to 2.83%. Under `CCn1cc(C(=O)O)c(=O)c2cnc(N3CCNCC3)nc21` stands -2.84%. To `COc1cc2nc(N3CCN(C(=O)c4ccco4)CC3)nc(N)c2cc1OC` belongs -8.86%; to `Oc1c(I)cc(I)c2cccnc12`, -1.75%; to `CC1(C)C(=O)CC[C@@]2(C)C1C[C@@H](O)[C@@]1(C)C3=CC(=O)O[C@@H](c4ccoc4)[C@]3(C)CCC21` (some centres not stated), -17.7%.

Regarding `CCN(CC)CCNC(=O)c1cc(S(C)(=O)=O)ccc1OC`, the growth inhibition was -0.324%. Take `O=C(CCCN1CC=C(n2c(=O)[nH]c3ccccc32)CC1)c1ccc(F)cc1`: the growth inhibition is -10.3%.

For `CCCCCC(C)N` (configuration not stated), the growth inhibition was -30.3%. For `COc1cc2c(cc1OC)C1C(=O)c3c(OC)cc4c(c3OC1CO2)CCC(C)(C)O4` (stereo not drawn) [DIHYDRO-alpha-TOXICAROL METHYL ETHER], the growth inhibition is -15.3%. Consider `COc1ccc2cc(CCC(C)=O)ccc2c1`, for which the growth inhibition stood at 1.37%. As to `O=C(O)CCC(=O)OC[C@@H](NC(=O)C(Cl)Cl)[C@H](O)c1ccc([N+](=O)[O-])cc1`, the growth inhibition was -1.37%. `CCOc1ccc(C(=O)c2cc(O)c(OC)c(OC)c2O)cc1`: the growth inhibition came out at 1.65%. Turning to `CCn1cc(C(=O)O)c(=O)c2ccc(C)nc21`, the growth inhibition is -6.89%. Turning to `COC(=O)[C@]1(C)CCC[C@]2(C)c3ccc(C(C)C)cc3C(=O)CC12` (some centres not stated), the growth inhibition was -45.1%. As for `C#CCN(C)Cc1ccccc1`, the growth inhibition was -26.2%.

Turning to `CC(=O)O[C@H]1CC[C@@]2(C)[C@H](CC[C@@H]3[C@@H]2CC[C@]2(C)[C@@H]4[C@H](C[C@@H]32)O[C@]2(CC[C@@H](C)CO2)[C@H]4C)C1`, the growth inhibition was -4.12%. For the molecule `Cc1ncc([N+](=O)[O-])n1CCO`, the growth inhibition is -1.71%. Consider `CCN(Cc1ccncc1)C(=O)C(CO)c1ccccc1` (configuration not stated), for which the growth inhibition came to 15.9%. To `CC(C)CCC[C@@H](C)[C@H]1CC[C@H]2[C@@H]3CC=C4CC(=O)CC[C@]4(C)[C@H]3CC[C@]12C` belongs -10.3%.

For `NC[C@H]1O[C@H](O[C@H]2[C@H](O[C@@H]3O[C@H](CO)[C@@H](O)[C@H]3O)[C@@H](O)[C@H](N)C[C@@H]2N)[C@H](N)[C@@H](O)[C@@H]1O`, the growth inhibition is -9.03%. Consider `C=C(C)C1Cc2c(ccc(C(=O)O)c2O)O1` (configuration not stated), for which the growth inhibition came out at 29.9%. As for `COc1ccc2[nH]cc(CCNC(C)=O)c2c1`, the growth inhibition was -21.1%.

Take `O=C([O-])c1ccccc1O.[Na+]`: the growth inhibition is -7.83%.

Consider `C[C@@H]1CC[C@@]2(OC1)O[C@H]1C[C@H]3[C@@H]4CC[C@H]5C[C@@H](O)CC[C@]5(C)[C@H]4C[C@@H](O)[C@]3(C)[C@H]1[C@@H]2C`, for which the growth inhibition is -2.2%.

Take `CC(=O)OC1CCC23CC1(C)CCC2C(C)(C)CC3OC(C)=O` (configuration not stated): the growth inhibition is -10.8%.

With `COC(=O)C[C@H]1C(C)(C)C(OC(C)=O)[C@]2(O)C=C3C4CC(=O)O[C@@H](c5ccoc5)[C@]4(C)CCC3[C@@]1(C)C2=O` (some centres not stated), the growth inhibition is -3.8%.
